Data published in publication PMC9945734 (BMC Medicine, 2023).

Test system: PC-3-KQ cells
Experiment: 3D spheroid invasion assay and screening of FDA-approved drugs
Assay type: cell-based, human
Settings: secondary screening of 87 hit compounds (Table S1), compared to vehicle control
Experimental: The invasion assay was performed as previously described. […] The plates were then centrifuged at 320 g for 4 min to cluster cells in the bottom of wells and incubated for 3 days. On the fourth day, 40 μL medium was removed from each well, 40 μL of the matrigel-medium mixture was added to each well, and cells were cultured for another 3 days. […] At the end of the incubation, images were taken using a phase contrast microscope (Eclipse Ti2, Nikon, Tokyo, Japan) with 10× object lenses, and the total area of cells and the core sphere area of cells (Fig. 1a) were measured using the Image J software. The invading area was calculated using the following formula: invasion area = total area of cells – core sphere area.
For drug screening, drugs were added to the matrigel-medium mixture when replacing the culture medium on day 4. For the initial round of screening, a final concentration of 10 μM was used for all drugs. Multiple drug concentrations were used for the second round of screening, including 0, 0.001, 0.01, 0.1, 1, and 10 μM. Duplicate wells were repeated for each concentration.

| SMILES | Invasion rates (%) of each drug’s multiple concentrations (μM) (0.01 μM (first column so headed)) [%] | Invasion rates (%) of each drug’s multiple concentrations (μM) (0.01 μM (second column so headed)) [%] | Invasion rates (%) of each drug’s multiple concentrations (μM) (0.1 μM) [%] | Invasion rates (%) of each drug’s multiple concentrations (μM) (1 μM) [%] | Invasion rates (%) of each drug’s multiple concentrations (μM) (10 μM) [%] | activity at 1 µM (Homo sapiens, 72 h, 1 μM, read-out: Invasion rates (%) of each drug’s multiple concentrations) [%] | activity at 10 µM (Homo sapiens, 72 h, 10 μM, read-out: Invasion rates (%) of each drug’s multiple concentrations) [%] |
| --- | --- | --- | --- | --- | --- | --- | --- |
| CN1CCC[C@@H]1CCO[C@](C)(c1ccccc1)c1ccc(Cl)cc1.O=C(O)/C=C/C(=O)O [Clemastine (fumarate)] | 99.30 | 99.73 | 98.29 | 97.09 | 41.07 |  |  |
| COc1cc(OC)cc(N(CCNC(C)C)c2ccc3ncc(-c4cnn(C)c4)nc3c2)c1 [Erdafitinib] |  |  |  |  |  | 80.6 | 50.3 |
